Results are given in words; binding and its absence hold for the method and conditions named.
Molecular target: Rof (Rho-off, also called YaeO) (E. coli) (UniProt P0AFW8)
Assay: SEC

B1: Rof (Rho-off, also called YaeO) (natural protein, E. coli)
chain: MNDTYQPINCDDYDNLELACQHHLMLTLELKDGEKLQAKASDLVSRKNVEYLVVEAAGETRELRLDKITSFSHPEIGTVVVSES
binding: no binding
